Measurements taken from the supplement of paper PMC10398353.
Where a name gives a salt, the structure may show the parent alone. The list shows a part of the results. The data scatter; read single values as rough.

Test system: Salmonella enterica serovar Typhimurium ST313 D23580
Test: normalized bacterial growth (OD600 20 h minus 0 h, interquartile-mean normalized) (fraction of plate interquartile mean); higher = more bacterial growth (less inhibition)
Settings: LPM (pH 5.8, low phosphate, low Mg2+), concentration: 10 µM, temperature: 37 °C

Compound	normalized bacterial growth
CCN[C@@H]1C[C@H](N)[C@@H](O[C@H]2OC(CN)=CC[C@H]2N)[C@H](O)[C@H]1O[C@H]1OC[C@](C)(O)[C@H](NC)[C@H]1O	1.12
O=C1NC(=O)C(c2ccccc2)(c2ccccc2)N1 ["5,5-Diphenylhydantoin"]	1.3
CC(C)(C)NCC(O)COc1cccc2[nH]c(=O)[nH]c12 (stereo unspecified)	1.18
COc1c(N2CCNC(C)C2)c(F)cc2c(=O)c(C(=O)O)cn(C3CC3)c12 (stereo unspecified)	0.139
N[C@@H](C(=O)O)[C@@H](O)[C@H](O)[C@H](O)CO	0.858
O=C(c1ccccc1)c1ccc2n1CCC2C(=O)O (stereo unspecified) [Ketorolac tris salt]	1.09
CCOC(=O)[C@@](C)(N)Cc1ccc(O)c(O)c1	0.857
OCc1ccccc1O	0.988
CNC(=O)[C@H]1O[C@@H](n2cnc3c(NCc4cccc(I)c4)nc(Cl)nc32)[C@H](O)[C@@H]1O [Chloro-IB-MECA]	1.21
CC1(C)CC2C1CCC1(C)OC2(C)CCC1O (stereo unspecified)	1.03
COc1cc(-c2cc(=O)c3c(O)cc(O)cc3o2)ccc1O	1.09
Cn1ccc2cc3c(cc21)CCN3C(=O)Nc1cccnc1	0.684
O=C(O)CP(=O)(O)O [Phosphonoacetic acid]	1.02
N#CC(C#N)=C(N)/C(C#N)=C/c1cc(O)c(O)c(O)c1 [Tyrphostin 51]	0.897
CO/N=C(\C(=O)N[C@@H]1C(=O)N2C(C(=O)OC(C)OC(C)=O)=C(COC(N)=O)CS[C@H]12)c1ccco1 (stereo partly specified)	1.12
CCN(CC)CCCCCCCCOC(=O)c1cc(OC)c(OC)c(OC)c1 [TMB-8 hydrochloride]	0.756
C[C@@H]1O[C@@H](O[C@@H]2[C@@H](O)[C@H](O)[C@@H](CO)O[C@H]2c2c(O)cc(O)c3c(=O)cc(-c4ccc(O)cc4)oc23)[C@H](O)[C@H](O)[C@H]1O	1.09
CNc1ccccc1C(=O)N1CCc2c([nH]c3ccccc23)C1=O	0.857
COc1ccc2c(=O)c(CC(=O)O)coc2c1	1.17
COc1ccccc1OCC(O)COC(N)=O (stereo unspecified)	1.19
Nc1c2c(nc3ccccc13)CCCC2O (stereo unspecified) [Hydroxytacrine maleate]	0.968
Cc1cc(N)c2ccccc2[n+]1CCCCCCCCCC[n+]1c(C)cc(N)c2ccccc21 [Dequalinium chloride hydrate]	1.01
C=CCCCCCCCCC(=O)[O-].C=CCCCCCCCCC(=O)[O-].[Zn+2]	1.06
COC(=O)Nc1nc2cc([S+]([O-])c3ccccc3)ccc2[nH]1 (stereo unspecified)	1.03
O=c1cc(-c2ccccc2)oc2cccc(O)c12	1.16
C[C@@H]1C(=O)NC2=Nc3cccc(Cl)c3CN21 [Quazinone]	0.893

Exported field by field: 2 of the compounds above.
COC(=O)Nc1nc2cc([S+]([O-])c3ccccc3)ccc2[nH]1 (stereo unspecified)
  normalized bacterial growth: 1.03
O=c1cc(-c2ccccc2)oc2cccc(O)c12
  normalized bacterial growth: 1.16
